Assay results from the supplement of paper PMC11348887.
Structures can show the parent of a compound that is named as a salt. ± gives the standard deviation of the averaged measurements. The list shows a part of the results. Most values lie at the level of the controls, where differences are scatter.

Columns and labels:
Conditions in all cases: 5 µM; treatment: days 7-14 after plating, readout day 21
[1] = tested on: hPSC-derived cortical neurons (WA09); experiment: nucleus area z-score vs screen plate; higher = larger nuclei (more mature)
[2] = tested on: hPSC-derived cortical neurons (WA09); experiment: total neurite length per nucleus (MAP2) z-score; higher = more neurite growth
[3] = tested on: hPSC-derived cortical neurons (WA09); experiment: nucleus roundness z-score vs screen plate; higher = rounder nuclei (more mature)
[4] = tested on: hPSC-derived cortical neurons (WA09); experiment: KCl-induced FOS+/EGR-1+ double-positive nuclei fraction z-score (KCl minus unstimulated); higher = stronger activity-induced IEG response

## Cc1cccc(-c2nn3c(c2-c2ccnc4ccc(C(N)=O)cc24)CCC3)n1
[1]
  nucleus area z-score: 3.4
[2]
  total neurite length per nucleus (z-score): -2.9
[3]
  nucleus roundness z-score: -5
[4]
  KCl-induced FOS+/EGR-1+ double-positive nuclei fraction z-score: -0.803

## Cc1ncc(CCCN(C)C)cc1Nc1ncc2c(n1)-c1ccc(C(F)(F)F)cc1NC(=S)C2
[1]
  nucleus area z-score: -2.01
[2]
  total neurite length per nucleus (z-score): 0.598
[3]
  nucleus roundness z-score: 0.942
[4]
  KCl-induced FOS+/EGR-1+ double-positive nuclei fraction z-score: -0.872

## O=C(O)Cc1cc(I)c(Oc2ccc(O)c(I)c2)c(I)c1 [Tiratricol]
[1]
  nucleus area z-score: 0.462 ± 0.8
[2]
  total neurite length per nucleus (z-score): 0.31 ± 0.44
[3]
  nucleus roundness z-score: 0.52 ± 0.62
[4]
  KCl-induced FOS+/EGR-1+ double-positive nuclei fraction z-score: -0.534 ± 0.83

## COc1cc2c(cc1OC)-c1cc3ccc(OC)c(OC)c3c[n+]1CC2 [Palmatine chloride]
[1]
  nucleus area z-score: -0.196
[2]
  total neurite length per nucleus (z-score): -1.45
[3]
  nucleus roundness z-score: -2.75
[4]
  KCl-induced FOS+/EGR-1+ double-positive nuclei fraction z-score: -1.03

## CC(=O)OCC1=C(C(=O)O)N2C(=O)[C@@H](NC(=O)Cc3cccs3)[C@H]2SC1 [Cephalothin]
[1]
  nucleus area z-score: 0.757
[2]
  total neurite length per nucleus (z-score): 1.08
[3]
  nucleus roundness z-score: -0.715
[4]
  KCl-induced FOS+/EGR-1+ double-positive nuclei fraction z-score: 0.265

## CCOC(=O)[C@H](CCc1ccccc1)N[C@H]1CS[C@H](c2cccs2)CN(CC(=O)O)C1=O [Temocapril HCl]
[1]
  nucleus area z-score: -0.0136
[2]
  total neurite length per nucleus (z-score): 0.285
[3]
  nucleus roundness z-score: 0.0282
[4]
  KCl-induced FOS+/EGR-1+ double-positive nuclei fraction z-score: 0.309

## CC1COc2c(N3CCN(C)CC3)c(F)cc3c(=O)c(C(=O)O)cn1c23 (stereo not drawn) [Ofloxacin]
[1]
  nucleus area z-score: 0.407
[2]
  total neurite length per nucleus (z-score): 1.56
[3]
  nucleus roundness z-score: 1.14
[4]
  KCl-induced FOS+/EGR-1+ double-positive nuclei fraction z-score: -0.709

## COc1ccc(-n2nc(C(N)=O)c3c2C(=O)N(c2ccc(N4CCCCC4=O)cc2)CC3)cc1 [Apixaban]
[1]
  nucleus area z-score: -0.0838
[2]
  total neurite length per nucleus (z-score): 1.53
[3]
  nucleus roundness z-score: 1.03
[4]
  KCl-induced FOS+/EGR-1+ double-positive nuclei fraction z-score: 0.912

## CN1CC[C@H](c2c(O)cc(O)c3c(=O)cc(-c4ccccc4Cl)oc23)[C@H](O)C1 [Flavopiridol HCl]
[1]
  nucleus area z-score: -14
[2]
  total neurite length per nucleus (z-score): -5.76
[3]
  nucleus roundness z-score: -9.13
[4]
  KCl-induced FOS+/EGR-1+ double-positive nuclei fraction z-score: -1.24

## CC(=O)N[C@@H](CS)C(=O)O [Acetylcysteine]
[1]
  nucleus area z-score: 0.0246
[2]
  total neurite length per nucleus (z-score): 0.851
[3]
  nucleus roundness z-score: 0.839
[4]
  KCl-induced FOS+/EGR-1+ double-positive nuclei fraction z-score: 0.27

## C[C@H](NC(=O)[C@@H](O)c1cc(F)cc(F)c1)C(=O)N[C@@H]1C(=O)N(C)c2ccccc2-c2ccccc21
[1]
  nucleus area z-score: -2.04
[2]
  total neurite length per nucleus (z-score): 0.826
[3]
  nucleus roundness z-score: 0.0909
[4]
  KCl-induced FOS+/EGR-1+ double-positive nuclei fraction z-score: 0.223

## N=c1ccn2c(n1)O[C@H]1[C@H](O)[C@@H](CO)O[C@H]12 [Cyclocytidine HCl]
[1]
  nucleus area z-score: -0.192
[2]
  total neurite length per nucleus (z-score): 1.44
[3]
  nucleus roundness z-score: -0.331
[4]
  KCl-induced FOS+/EGR-1+ double-positive nuclei fraction z-score: 0.533

## C[n+]1ccccc1/C=N/O [Pralidoxime chloride]
[1]
  nucleus area z-score: 2.73
[2]
  total neurite length per nucleus (z-score): 1.16
[3]
  nucleus roundness z-score: 0.99
[4]
  KCl-induced FOS+/EGR-1+ double-positive nuclei fraction z-score: -0.624

## CCOC(=O)[C@H](CCc1ccccc1)N[C@@H](C)C(=O)N1Cc2cc(OC)c(OC)cc2C[C@H]1C(=O)O [Moexipril HCl]
[1]
  nucleus area z-score: -0.0143
[2]
  total neurite length per nucleus (z-score): -0.485
[3]
  nucleus roundness z-score: 0.377
[4]
  KCl-induced FOS+/EGR-1+ double-positive nuclei fraction z-score: 0.642

## C[C@H]1O[C@@H](n2cc(F)c(=O)[nH]c2=O)[C@H](O)[C@@H]1O [Doxifluridine]
[1]
  nucleus area z-score: 2.11
[2]
  total neurite length per nucleus (z-score): -1.75
[3]
  nucleus roundness z-score: -1.48
[4]
  KCl-induced FOS+/EGR-1+ double-positive nuclei fraction z-score: -0.423

## CCOC(=O)Nc1cc(-c2ccc(C)c(NS(C)(=O)=O)c2)nn2c(C)nnc12 [Bromosporine]
[1]
  nucleus area z-score: -3.49
[2]
  total neurite length per nucleus (z-score): -1.85
[3]
  nucleus roundness z-score: -2.69
[4]
  KCl-induced FOS+/EGR-1+ double-positive nuclei fraction z-score: -0.0191

## COCCc1ccc(OCC(O)CNC(C)C)cc1 (stereo not drawn) [Metoprolol Tartrate]
[1]
  nucleus area z-score: 1.17
[2]
  total neurite length per nucleus (z-score): -0.547
[3]
  nucleus roundness z-score: -0.477
[4]
  KCl-induced FOS+/EGR-1+ double-positive nuclei fraction z-score: 0.32

## COc1ccc2cccc(CCNC(C)=O)c2c1 [Agomelatine]
[1]
  nucleus area z-score: -0.702
[2]
  total neurite length per nucleus (z-score): 0.435
[3]
  nucleus roundness z-score: 1.8
[4]
  KCl-induced FOS+/EGR-1+ double-positive nuclei fraction z-score: 3.36

## COc1ccc(C(=O)CC(=O)c2ccc(C(C)(C)C)cc2)cc1 [Avobenzone]
[1]
  nucleus area z-score: 0.164
[2]
  total neurite length per nucleus (z-score): 0.979
[3]
  nucleus roundness z-score: 0.479
[4]
  KCl-induced FOS+/EGR-1+ double-positive nuclei fraction z-score: 1.71

## O=C(c1ccc(Nc2nccc(-c3cc4ccccc4s3)n2)cc1)N1CCC(N2CCCC2)CC1 [IKK-16 (IKK Inhibitor VII)]
[1]
  nucleus area z-score: -11.8
[2]
  total neurite length per nucleus (z-score): -3.71
[3]
  nucleus roundness z-score: -0.105
[4]
  KCl-induced FOS+/EGR-1+ double-positive nuclei fraction z-score: -0.725

## C1CNCCN1 [Piperazine]
[1]
  nucleus area z-score: 0.763
[2]
  total neurite length per nucleus (z-score): -1.08
[3]
  nucleus roundness z-score: -0.723
[4]
  KCl-induced FOS+/EGR-1+ double-positive nuclei fraction z-score: 0.424

## N[C@@H](Cc1c[nH]c2ccc(O)cc12)C(=O)O [5-hydroxytryptophan (5-HTP)]
[1]
  nucleus area z-score: 0.843
[2]
  total neurite length per nucleus (z-score): 0.573
[3]
  nucleus roundness z-score: 0.386
[4]
  KCl-induced FOS+/EGR-1+ double-positive nuclei fraction z-score: 0.554

## Cc1cnc(C(=O)NCCc2ccc(S(=O)(=O)NC(=O)NC3CCCCC3)cc2)cn1 [Glipizide]
[1]
  nucleus area z-score: -0.0259
[2]
  total neurite length per nucleus (z-score): 0.681
[3]
  nucleus roundness z-score: 1.76
[4]
  KCl-induced FOS+/EGR-1+ double-positive nuclei fraction z-score: -0.088

## CCOc1nc2cccc(C(=O)OC(C)OC(=O)OC3CCCCC3)c2n1Cc1ccc(-c2ccccc2-c2nn[nH]n2)cc1 (stereo not drawn) [Candesartan Cilexetil]
[1]
  nucleus area z-score: 1.76
[2]
  total neurite length per nucleus (z-score): -1.23
[3]
  nucleus roundness z-score: -1.53
[4]
  KCl-induced FOS+/EGR-1+ double-positive nuclei fraction z-score: 0.662

## C=CC(=O)Nc1cccc(Oc2nc(Nc3ccc(N4CCN(C)CC4)cc3)ncc2Cl)c1
[1]
  nucleus area z-score: -1.78
[2]
  total neurite length per nucleus (z-score): -0.364
[3]
  nucleus roundness z-score: -0.295
[4]
  KCl-induced FOS+/EGR-1+ double-positive nuclei fraction z-score: -1.15

## O=c1c(O)c(-c2ccc(O)c(O)c2)oc2cc(O)cc(O)c12 [Quercetin Dihydrate]
[1]
  nucleus area z-score: 0.148
[2]
  total neurite length per nucleus (z-score): 0.529
[3]
  nucleus roundness z-score: 1.04
[4]
  KCl-induced FOS+/EGR-1+ double-positive nuclei fraction z-score: 0.906

## OC(c1cc(-c2ccc(Cl)cc2)nc2ccccc12)C1CCCCN1 (stereo not drawn) [Vacquinol-1]
[1]
  nucleus area z-score: -15.1
[2]
  total neurite length per nucleus (z-score): -5.95
[3]
  nucleus roundness z-score: -10.6
[4]
  KCl-induced FOS+/EGR-1+ double-positive nuclei fraction z-score: -0.627
